The list does not hold the whole screen: it is rich in T/C values a quarter to a half above the control, in often repeated tests (any T/C) and in doses without a T/C. Further doses and runs are listed elsewhere. T/C: endpoint of the treated group in % of that of the vehicle group. Some doses have a count of surviving animals in place of a T/C: the source holds a T/C of zero for them, seemingly a mark for toxic or unscored doses. Some survivor counts are full or nearly so, which does not show that the dose was tolerated: the source hardly ever lists a survival T/C far under the control, and the zero likely stands for such cases as well. Survivors were counted at the toxicity check, usually on the fifth day, unless a day is given; later deaths do not show. Schedule codes are those of the source, read here as Q, the interval in days (D) or hours (H), X, the number of doses. Some structures stand for samples that the source files as different forms (salt, stereo form or complex); doses refer to the form tested. Marks such as (2×) count equal records among those shown. Some entries hold several experiments; the results are listed from low to high. Where survival is the endpoint, this PubChem deposit counts one and a half times the control or more as active, and values a quarter to a half above the control carry no call in these data; other NCI protocols may use other cut-offs. Some T/C values are followed by the survivors on the day toxicity was checked, most often the fifth; without a count, all were alive then.
Tested on: BDF1 mice, intracerebral B16 melanoma, median survival T/C
Assay: NCI In Vivo Anticancer Drug Screen. Data for tumor model B16 Melanoma (intracerebral) in B6D2F1 (BDF1) mice
Conditions: T/C endpoint: median survival time, higher T/C = longer survival
Experimental: The antitumor activity of compounds was measured in mice bearing transplantable tumors. Survival or tumor size were measured and the results are expressed as the measurement made in the treated group (T) divided by the measurement made in the vehicle treated control group (C). The tumor model used in this assay is B16 Melanoma (intracerebral) in B6D2F1 (BDF1) mice

[1] = dose: 50.0 mg/kg/injection, schedule: Q01DX009 (ip), vehicle: saline with Tween-80
[2] = dose: 200.0 mg/kg/injection, schedule: Q01DX009 (ip), vehicle: saline with Tween-80
[3] = dose: 400.0 mg/kg/injection, schedule: Q01DX009 (ip), vehicle: saline with Tween-80

O=NN(CCCl)C(=O)NC1CCCCC1
T/C (dose: 4.0 mg/kg/injection, schedule: Q01DX009 (ip), vehicle: Klucel (hydroxypropylcellulose) (HPC)): 140 % of control | T/C (dose: 8.0 mg/kg/injection, schedule: Q01DX009 (ip), vehicle: other): 148 % of control [9 of 10 alive] | T/C (dose: 8.0 mg/kg/injection, schedule: Q01DX009 (ip), vehicle: saline with Tween-80): 145 % of control | survivor count (dose: 8.0 mg/kg/injection, schedule: Q04DX003 (ip), vehicle: saline): 6 of 6 | T/C (dose: 13.0 mg/kg/injection, schedule: Q01DX001 (ip), vehicle: Klucel (hydroxypropylcellulose) (HPC)): 137 % of control | T/C (dose: 16.0 mg/kg/injection, schedule: Q04DX003 (ip), vehicle: saline): 129 % of control | T/C (dose: 21.6 mg/kg/injection, schedule: Q01DX001 (ip), vehicle: Klucel (hydroxypropylcellulose) (HPC)): 132 % of control [9 of 10 alive on day 6] | T/C (dose: 21.6 mg/kg/injection, schedule: Q01DX001 (ip), vehicle: other): 134 % of control | T/C (dose: 26.7 mg/kg/injection, schedule: Q01DX001 (ip), vehicle: Klucel (hydroxypropylcellulose) (HPC)): 135 % of control [9 of 10 alive on day 6] | T/C (dose: 32.0 mg/kg/injection, schedule: Q01DX009 (ip), vehicle: saline with Tween-80): 145 % of control | survivor count (dose: 32.0 mg/kg/injection, schedule: Q04DX003 (ip), vehicle: Klucel (hydroxypropylcellulose) (HPC)): 6 of 6 | T/C (dose: 60.0 mg/kg/injection, schedule: Q01DX001 (ip), vehicle: other): 140 % of control | survivor count (dose: 60.0 mg/kg/injection, schedule: Q01DX009 (ip), vehicle: saline): 10 of 10 | survivor count (dose: 64.0 mg/kg/injection, schedule: Q01DX009 (ip), vehicle: Klucel (hydroxypropylcellulose) (HPC)): 10 of 10 | survivor count (dose: 64.0 mg/kg/injection, schedule: Q01DX009 (ip), vehicle: saline with Tween-80): 8 of 10 | survivor count (dose: 75.7 mg/kg/injection, schedule: Q01DX001 (ip), vehicle: other): 10 of 10 | survivor count (dose: 100.0 mg/kg/injection, schedule: Q01DX001 (ip), vehicle: Klucel (hydroxypropylcellulose) (HPC)): 9 of 10 on day 6 | survivor count (dose: 100.0 mg/kg/injection, schedule: Q01DX001 (ip), vehicle: other): 10 of 10

CN(CO)c1nc(N(C)CO)nc(N(C)CO)n1
survivor count [1]: 5 of 10 | survivor count (dose: 100.0 mg/kg/injection, schedule: Q01DX009 (ip), vehicle: saline with Tween-80): 3 of 10 | survivor count (dose: 200.0 mg/kg/injection, schedule: Q01DX009 (ip), vehicle: Klucel (hydroxypropylcellulose) (HPC)): 2 of 10 and 6 of 10 | survivor count [2]: 10 of 10 | survivor count (dose: 400.0 mg/kg/injection, schedule: Q01DX009 (ip), vehicle: Klucel (hydroxypropylcellulose) (HPC)): 0 of 10 (2×) | survivor count [3]: 8 of 10 | survivor count (dose: 800.0 mg/kg/injection, schedule: Q01DX009 (ip), vehicle: saline with Tween-80): 1 of 10

COc1ccc2c(c1OC(C)=O)-c1cc(O)cc3c1C(C2)N(C(=O)CN(CCCl)CCCl)CC3 (stereo unspecified)
survivor count (dose: 25.0 mg/kg/injection, schedule: Q01DX009 (ip), vehicle: saline with Tween-80): 10 of 10 | survivor count (dose: 32.0 mg/kg/injection, schedule: Q01DX005 (ip), vehicle: DMSO): 8 of 10 | survivor count [1]: 7 of 10 | survivor count (dose: 64.0 mg/kg/injection, schedule: Q01DX005 (ip), vehicle: DMSO): 7 of 10 | survivor count (dose: 128.0 mg/kg/injection, schedule: Q01DX005 (ip), vehicle: DMSO): 3 of 10

COC(COC(=O)N1CCN(C=O)CC1)C1=C(N2CC2)C(=O)C(C)=C(N2CC2)C1=O (stereo unspecified)
survivor count (dose: 12.0 mg/kg/injection, schedule: Q01DX009 (ip), vehicle: saline): 10 of 10

Cc1cn(C2CC(O)C(CO)O2)c(=O)[nH]c1=O (stereo unspecified)
T/C [2]: 129 % of control [9 of 10 alive] | T/C [3]: 129 % of control [9 of 10 alive]

CN(C)/N=N/c1[nH]ncc1C(N)=O
T/C (dose: 32.0 mg/kg/injection, schedule: Q01DX005 (ip), vehicle: saline with Tween-80): 132 % of control [9 of 10 alive] | survivor count (dose: 256.0 mg/kg/injection, schedule: Q01DX005 (ip), vehicle: saline with Tween-80): 10 of 10 | survivor count (dose: 512.0 mg/kg/injection, schedule: Q01DX005 (ip), vehicle: saline with Tween-80): 0 of 10

O=C1NC2(CCCCC2)C(=O)N1CCN(CCCl)CCCl
survivor count (dose: 24.0 mg/kg/injection, schedule: Q01DX009 (ip), vehicle: saline with Tween-80): 9 of 10

CN(N=O)C(=O)N[C@@H](C=O)[C@@H](O)[C@H](O)[C@H](O)CO
survivor count (dose: 0.19 mg/kg/injection, schedule: Q01DX009 (ip), vehicle: citric acid): 0 of 10 | survivor count (dose: 0.39 mg/kg/injection, schedule: Q01DX009 (ip), vehicle: citric acid): 0 of 10 | survivor count (dose: 0.78 mg/kg/injection, schedule: Q01DX009 (ip), vehicle: citric acid): 0 of 10 | survivor count (dose: 1.0 mg/kg/injection, schedule: Q01DX009 (ip), vehicle: citric acid): 0 of 10 | survivor count (dose: 1.56 mg/kg/injection, schedule: Q01DX009 (ip), vehicle: citric acid): 0 of 10 | survivor count (dose: 2.0 mg/kg/injection, schedule: Q01DX009 (ip), vehicle: citric acid): 0 of 10 | survivor count (dose: 3.12 mg/kg/injection, schedule: Q01DX009 (ip), vehicle: citric acid): 0 of 10 | survivor count (dose: 4.0 mg/kg/injection, schedule: Q01DX009 (ip), vehicle: citric acid): 0 of 10 | survivor count (dose: 6.25 mg/kg/injection, schedule: Q01DX009 (ip), vehicle: citric acid): 0 of 10 | survivor count (dose: 8.0 mg/kg/injection, schedule: Q01DX009 (ip), vehicle: citric acid): 0 of 10 | survivor count (dose: 12.5 mg/kg/injection, schedule: Q01DX009 (ip), vehicle: citric acid): 0 of 10 | survivor count (dose: 25.0 mg/kg/injection, schedule: Q01DX009 (ip), vehicle: citric acid): 0 of 10 | survivor count (dose: 50.0 mg/kg/injection, schedule: Q01DX009 (ip), vehicle: citric acid): 0 of 10 | survivor count (dose: 100.0 mg/kg/injection, schedule: Q01DX009 (ip), vehicle: citric acid): 0 of 10 | survivor count (dose: 200.0 mg/kg/injection, schedule: Q01DX009 (ip), vehicle: citric acid): 0 of 10 | survivor count (dose: 0.25 micrograms/kg/injection, schedule: Q01DX009 (ip), vehicle: citric acid): 9 of 10 | survivor count (dose: 0.5 micrograms/kg/injection, schedule: Q01DX009 (ip), vehicle: citric acid): 0 of 10 | survivor count (dose: 1.0 micrograms/kg/injection, schedule: Q01DX009 (ip), vehicle: citric acid): 0 of 10 | survivor count (dose: 2.0 micrograms/kg/injection, schedule: Q01DX009 (ip), vehicle: citric acid): 0 of 10 | survivor count (dose: 5.0 micrograms/kg/injection, schedule: Q01DX009 (ip), vehicle: citric acid): 0 of 10 | survivor count (dose: 10.0 micrograms/kg/injection, schedule: Q01DX009 (ip), vehicle: citric acid): 0 of 10

O=C1C(=O)c2ccccc2C(O)=C1CC=C(Cl)Cl
survivor count (dose: 80.0 mg/kg/injection, schedule: Q01DX005 (ip), vehicle: Klucel (hydroxypropylcellulose) (HPC)): 4 of 10

CS(C)=O
survivor count (dose: 1000.0 mg/kg/injection, schedule: Q01DX005 (ip), vehicle: saline): 10 of 10

OC(CBr)C(O)C(O)C(O)CBr (stereo unspecified)
T/C (dose: 200.0 mg/kg/injection, schedule: Q01DX009 (ip), vehicle: saline): 141 % of control | T/C (dose: 400.0 mg/kg/injection, schedule: Q01DX009 (ip), vehicle: saline): 145 % of control

O=NN(CCF)C(=O)NCCO
survivor count (dose: 60.0 mg/kg/injection, schedule: Q01DX001 (ip), vehicle: saline): 2 of 10 on day 6 | survivor count (dose: 90.0 mg/kg/injection, schedule: Q01DX001 (ip), vehicle: Klucel (hydroxypropylcellulose) (HPC)): 6 of 10 on day 6 | T/C (dose: 100.0 mg/kg/injection, schedule: Q01DX001 (ip), vehicle: saline): 126 % of control | survivor count (dose: 135.0 mg/kg/injection, schedule: Q01DX001 (ip), vehicle: Klucel (hydroxypropylcellulose) (HPC)): 2 of 10 on day 6
